Measurements published in the supplement of paper PMC10849652.
The other results are listed elsewhere or left out.

Sequences of proteins named here, by UniProt entry; tags and fusion partners are left off. A change or cut given only in a name is not applied to a line headed by its entry.
UniProt Q8WZA0: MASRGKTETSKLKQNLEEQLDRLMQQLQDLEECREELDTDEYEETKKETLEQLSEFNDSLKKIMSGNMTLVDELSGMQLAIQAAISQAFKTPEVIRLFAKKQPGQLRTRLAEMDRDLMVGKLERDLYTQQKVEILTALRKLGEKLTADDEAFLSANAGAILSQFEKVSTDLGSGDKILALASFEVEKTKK
UniProt Q9NQ48: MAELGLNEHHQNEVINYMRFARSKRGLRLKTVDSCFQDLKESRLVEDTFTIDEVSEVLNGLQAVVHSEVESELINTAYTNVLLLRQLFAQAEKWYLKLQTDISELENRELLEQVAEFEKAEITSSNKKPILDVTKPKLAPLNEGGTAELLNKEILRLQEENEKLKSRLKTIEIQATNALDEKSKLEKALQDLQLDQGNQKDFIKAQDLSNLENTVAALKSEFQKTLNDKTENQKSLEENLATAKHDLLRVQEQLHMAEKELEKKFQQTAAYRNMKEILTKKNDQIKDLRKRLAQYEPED
UniProt Q9Y383: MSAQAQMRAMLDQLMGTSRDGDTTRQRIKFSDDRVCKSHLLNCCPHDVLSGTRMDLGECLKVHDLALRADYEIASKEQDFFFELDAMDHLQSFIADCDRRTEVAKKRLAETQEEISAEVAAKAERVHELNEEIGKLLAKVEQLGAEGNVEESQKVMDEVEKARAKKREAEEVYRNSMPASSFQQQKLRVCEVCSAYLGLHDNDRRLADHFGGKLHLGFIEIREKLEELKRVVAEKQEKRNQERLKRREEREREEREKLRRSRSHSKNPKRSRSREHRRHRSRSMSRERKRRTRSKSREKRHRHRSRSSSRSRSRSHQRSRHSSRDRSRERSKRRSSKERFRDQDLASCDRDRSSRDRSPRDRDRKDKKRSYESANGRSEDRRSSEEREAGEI
UniProt Q9UI95, whole entry, looked up: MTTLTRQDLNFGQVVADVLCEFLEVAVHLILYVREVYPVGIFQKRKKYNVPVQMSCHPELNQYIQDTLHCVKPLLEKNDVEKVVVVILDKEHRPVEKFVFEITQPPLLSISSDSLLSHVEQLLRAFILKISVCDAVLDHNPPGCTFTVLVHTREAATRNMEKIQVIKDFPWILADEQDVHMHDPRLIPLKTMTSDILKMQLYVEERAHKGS
UniProt Q8N2S1: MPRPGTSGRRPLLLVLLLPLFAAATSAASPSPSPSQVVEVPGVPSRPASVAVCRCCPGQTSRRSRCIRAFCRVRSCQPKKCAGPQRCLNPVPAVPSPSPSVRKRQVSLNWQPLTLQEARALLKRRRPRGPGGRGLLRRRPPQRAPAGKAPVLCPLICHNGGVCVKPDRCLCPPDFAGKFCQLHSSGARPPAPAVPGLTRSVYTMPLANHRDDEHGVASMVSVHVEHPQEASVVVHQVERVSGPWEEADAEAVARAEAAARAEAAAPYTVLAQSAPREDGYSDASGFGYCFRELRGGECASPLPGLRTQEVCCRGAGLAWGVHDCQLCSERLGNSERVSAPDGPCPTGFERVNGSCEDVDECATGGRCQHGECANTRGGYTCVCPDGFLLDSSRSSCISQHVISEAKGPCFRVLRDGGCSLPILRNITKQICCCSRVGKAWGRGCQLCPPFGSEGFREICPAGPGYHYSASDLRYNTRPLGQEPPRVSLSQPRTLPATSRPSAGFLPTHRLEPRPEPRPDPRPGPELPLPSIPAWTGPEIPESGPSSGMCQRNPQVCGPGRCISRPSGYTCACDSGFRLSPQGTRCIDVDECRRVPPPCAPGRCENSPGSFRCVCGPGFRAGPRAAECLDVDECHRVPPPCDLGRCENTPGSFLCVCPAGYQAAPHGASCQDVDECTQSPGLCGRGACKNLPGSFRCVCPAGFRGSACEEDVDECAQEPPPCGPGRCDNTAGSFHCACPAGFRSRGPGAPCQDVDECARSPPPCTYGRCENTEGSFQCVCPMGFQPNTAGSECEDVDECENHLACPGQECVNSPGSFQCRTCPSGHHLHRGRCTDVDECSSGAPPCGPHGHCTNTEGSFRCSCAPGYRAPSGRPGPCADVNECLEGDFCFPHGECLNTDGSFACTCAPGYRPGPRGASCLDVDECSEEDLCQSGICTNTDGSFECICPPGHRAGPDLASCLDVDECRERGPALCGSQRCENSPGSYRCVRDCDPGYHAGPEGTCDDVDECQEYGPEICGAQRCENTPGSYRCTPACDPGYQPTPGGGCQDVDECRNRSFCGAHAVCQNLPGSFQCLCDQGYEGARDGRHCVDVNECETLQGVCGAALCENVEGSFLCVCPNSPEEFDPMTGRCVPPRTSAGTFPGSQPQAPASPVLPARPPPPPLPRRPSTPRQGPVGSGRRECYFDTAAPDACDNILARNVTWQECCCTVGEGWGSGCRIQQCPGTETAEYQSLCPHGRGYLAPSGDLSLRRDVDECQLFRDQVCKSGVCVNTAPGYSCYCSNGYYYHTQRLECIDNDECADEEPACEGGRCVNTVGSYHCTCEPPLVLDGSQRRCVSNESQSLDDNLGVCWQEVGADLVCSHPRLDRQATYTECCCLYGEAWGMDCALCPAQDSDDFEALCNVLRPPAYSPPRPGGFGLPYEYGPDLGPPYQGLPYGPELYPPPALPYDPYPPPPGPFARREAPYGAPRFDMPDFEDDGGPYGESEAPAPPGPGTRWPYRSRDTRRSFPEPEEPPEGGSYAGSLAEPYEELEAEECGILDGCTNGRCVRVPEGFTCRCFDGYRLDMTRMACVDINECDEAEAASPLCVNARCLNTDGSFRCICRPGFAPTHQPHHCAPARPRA
UniProt P45983: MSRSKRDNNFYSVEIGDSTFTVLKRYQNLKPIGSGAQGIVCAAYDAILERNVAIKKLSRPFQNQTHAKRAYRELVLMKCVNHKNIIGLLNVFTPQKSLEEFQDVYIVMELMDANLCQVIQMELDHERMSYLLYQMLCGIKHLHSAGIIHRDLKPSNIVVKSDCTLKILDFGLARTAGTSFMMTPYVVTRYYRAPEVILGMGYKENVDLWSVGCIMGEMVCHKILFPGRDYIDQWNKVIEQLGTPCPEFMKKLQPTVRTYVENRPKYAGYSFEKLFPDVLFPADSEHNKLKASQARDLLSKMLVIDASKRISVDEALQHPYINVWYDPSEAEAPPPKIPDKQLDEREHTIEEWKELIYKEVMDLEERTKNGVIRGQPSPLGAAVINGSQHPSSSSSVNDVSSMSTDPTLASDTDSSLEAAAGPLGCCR
UniProt Q9UFC0: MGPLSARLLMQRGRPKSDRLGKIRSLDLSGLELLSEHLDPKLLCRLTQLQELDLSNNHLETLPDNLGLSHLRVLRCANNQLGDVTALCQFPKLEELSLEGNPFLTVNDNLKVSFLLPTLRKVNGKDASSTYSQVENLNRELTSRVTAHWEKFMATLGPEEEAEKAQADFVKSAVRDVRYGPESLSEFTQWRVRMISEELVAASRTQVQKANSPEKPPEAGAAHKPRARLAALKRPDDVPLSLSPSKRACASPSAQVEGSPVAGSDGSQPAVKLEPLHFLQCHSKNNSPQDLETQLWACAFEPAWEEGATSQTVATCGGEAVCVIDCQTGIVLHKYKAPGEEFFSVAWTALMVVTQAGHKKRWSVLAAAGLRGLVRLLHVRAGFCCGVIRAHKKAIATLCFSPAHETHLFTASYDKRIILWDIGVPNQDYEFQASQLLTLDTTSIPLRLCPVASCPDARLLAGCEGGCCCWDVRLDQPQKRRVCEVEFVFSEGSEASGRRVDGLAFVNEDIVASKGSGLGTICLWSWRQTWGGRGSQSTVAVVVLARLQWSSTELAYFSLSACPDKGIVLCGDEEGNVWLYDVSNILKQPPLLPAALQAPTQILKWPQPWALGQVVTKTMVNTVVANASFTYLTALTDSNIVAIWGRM
UniProt Q96QZ7: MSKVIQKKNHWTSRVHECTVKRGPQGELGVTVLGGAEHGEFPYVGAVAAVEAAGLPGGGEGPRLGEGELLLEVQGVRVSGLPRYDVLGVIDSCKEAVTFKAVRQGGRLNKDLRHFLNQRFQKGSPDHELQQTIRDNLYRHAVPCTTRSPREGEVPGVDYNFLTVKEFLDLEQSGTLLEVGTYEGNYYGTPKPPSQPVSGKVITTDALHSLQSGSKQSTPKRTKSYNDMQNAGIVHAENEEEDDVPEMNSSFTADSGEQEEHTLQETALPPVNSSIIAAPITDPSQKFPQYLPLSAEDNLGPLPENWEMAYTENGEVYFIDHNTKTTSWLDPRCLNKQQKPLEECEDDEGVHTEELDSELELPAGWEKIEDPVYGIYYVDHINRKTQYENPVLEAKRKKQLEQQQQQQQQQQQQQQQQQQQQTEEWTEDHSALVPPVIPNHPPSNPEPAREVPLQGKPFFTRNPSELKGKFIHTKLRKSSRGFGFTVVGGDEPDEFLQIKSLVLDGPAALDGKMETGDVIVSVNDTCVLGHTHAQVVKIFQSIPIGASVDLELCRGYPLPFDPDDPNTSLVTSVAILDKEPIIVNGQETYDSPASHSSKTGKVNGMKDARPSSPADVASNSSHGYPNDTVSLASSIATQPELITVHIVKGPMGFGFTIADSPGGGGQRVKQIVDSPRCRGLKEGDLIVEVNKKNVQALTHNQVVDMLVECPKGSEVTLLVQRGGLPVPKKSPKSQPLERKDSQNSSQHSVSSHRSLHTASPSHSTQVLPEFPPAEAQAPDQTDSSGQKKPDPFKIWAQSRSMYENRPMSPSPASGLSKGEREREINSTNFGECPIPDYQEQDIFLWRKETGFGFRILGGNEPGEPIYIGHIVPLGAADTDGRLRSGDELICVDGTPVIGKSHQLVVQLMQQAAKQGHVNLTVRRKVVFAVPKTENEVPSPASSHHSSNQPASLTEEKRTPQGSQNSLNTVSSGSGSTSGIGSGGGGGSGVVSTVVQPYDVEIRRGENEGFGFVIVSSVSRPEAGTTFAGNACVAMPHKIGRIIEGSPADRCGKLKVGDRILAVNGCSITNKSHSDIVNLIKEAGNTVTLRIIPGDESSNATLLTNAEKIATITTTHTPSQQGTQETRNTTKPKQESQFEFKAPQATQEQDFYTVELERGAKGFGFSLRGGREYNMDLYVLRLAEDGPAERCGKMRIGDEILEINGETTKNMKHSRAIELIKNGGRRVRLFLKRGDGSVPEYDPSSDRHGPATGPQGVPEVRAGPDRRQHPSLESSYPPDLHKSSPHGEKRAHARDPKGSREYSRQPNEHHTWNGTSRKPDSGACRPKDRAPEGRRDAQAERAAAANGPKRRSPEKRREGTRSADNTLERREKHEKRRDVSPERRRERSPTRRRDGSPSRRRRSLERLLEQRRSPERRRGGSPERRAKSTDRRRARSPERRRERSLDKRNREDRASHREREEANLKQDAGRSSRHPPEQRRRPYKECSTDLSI
UniProt Q8IW41: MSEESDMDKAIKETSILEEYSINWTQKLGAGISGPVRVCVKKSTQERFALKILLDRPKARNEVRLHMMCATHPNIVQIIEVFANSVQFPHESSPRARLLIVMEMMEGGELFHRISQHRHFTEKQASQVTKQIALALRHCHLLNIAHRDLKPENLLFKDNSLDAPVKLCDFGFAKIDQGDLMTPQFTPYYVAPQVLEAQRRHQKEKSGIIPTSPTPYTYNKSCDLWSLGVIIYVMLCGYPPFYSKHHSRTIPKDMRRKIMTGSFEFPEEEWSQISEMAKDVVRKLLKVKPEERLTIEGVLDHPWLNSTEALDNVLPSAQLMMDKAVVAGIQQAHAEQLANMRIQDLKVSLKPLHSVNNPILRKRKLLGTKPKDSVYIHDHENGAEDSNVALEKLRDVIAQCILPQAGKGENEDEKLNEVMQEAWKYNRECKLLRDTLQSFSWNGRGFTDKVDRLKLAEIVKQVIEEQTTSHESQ
UniProt Q6NSJ5: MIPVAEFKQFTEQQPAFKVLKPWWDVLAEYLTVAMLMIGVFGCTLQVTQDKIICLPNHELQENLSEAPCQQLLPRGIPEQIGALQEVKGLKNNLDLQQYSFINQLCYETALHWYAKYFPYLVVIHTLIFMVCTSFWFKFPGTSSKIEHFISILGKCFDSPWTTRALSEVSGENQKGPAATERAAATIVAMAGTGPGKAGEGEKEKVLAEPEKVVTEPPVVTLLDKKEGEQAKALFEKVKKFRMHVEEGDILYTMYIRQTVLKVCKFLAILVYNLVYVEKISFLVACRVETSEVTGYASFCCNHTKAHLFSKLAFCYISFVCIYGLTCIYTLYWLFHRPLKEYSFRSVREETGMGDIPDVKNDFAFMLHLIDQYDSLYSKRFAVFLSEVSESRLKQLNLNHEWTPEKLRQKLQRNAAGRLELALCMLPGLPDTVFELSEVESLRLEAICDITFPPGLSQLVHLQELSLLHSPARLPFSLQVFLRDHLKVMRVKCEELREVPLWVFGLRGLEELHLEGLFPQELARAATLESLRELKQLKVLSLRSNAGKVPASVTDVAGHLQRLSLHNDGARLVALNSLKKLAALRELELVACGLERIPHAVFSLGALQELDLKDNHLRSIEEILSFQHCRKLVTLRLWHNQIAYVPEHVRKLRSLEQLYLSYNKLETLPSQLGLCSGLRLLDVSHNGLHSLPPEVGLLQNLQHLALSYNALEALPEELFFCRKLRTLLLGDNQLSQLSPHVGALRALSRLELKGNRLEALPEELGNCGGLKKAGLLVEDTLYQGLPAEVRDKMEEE

Assays:
Experiment in all cases: log2 fold change, soluble protein after heating vs DMSO (PISA); higher = thermal stabilisation; K562 cells, 10 uM, 30 min; active = over 0.2 and 3.5 SD of the protein, either way, in both replicates (recomputed)
[1] = compound: CS(=O)(=O)c1ccc(-c2cnc(N)c(C(=O)Nc3ccccc3)n2)cc1
Summary of the method: (§1)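 For each measurement, 10 μM compound was applied for 30 min to K562 cells at 2×10^6 cells/mL. Aliquots were heated for 3 min across 48°C-58°C, pooled, and extracted in PBS with 0.5% NP-40 at 4°C; the supernatant after 21,000xg for 90 min was soluble protein. This was quantified by TMTpro 16plex LC-MS/MS with channel sums equalised, and thermal stability was reported relative to control samples from duplicates, on a log2 fold-change scale.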

crizotinib = compound: C[C@@H](Oc1cc(-c2cnn(C3CCNCC3)c2)cnc1N)c1c(Cl)ccc(F)c1Cl [crizotinib]
Summary of the method: as §1

[2] = compound: C[C@@H]1COCCN1C2=NC(=NC(=C2)C3(CC3)S(=O)(=O)C)C4=C5C=CNC5=CC=C4
Summary of the method: as §1

[3] = compound: C[C@H](C1=CC=C(C=C1)C(=O)NC2=C3C=CNC3=NC=C2)N
Summary of the method: as §1

duvelisib = compound: C[C@H](Nc1ncnc2nc[nH]c12)c1cc2cccc(Cl)c2c(=O)n1-c1ccccc1 [duvelisib]
Summary of the method: as §1

gandotinib = compound: Cc1cc(Nc2cc(CN3CCOCC3)c3nc(C)c(Cc4ccc(Cl)cc4F)n3n2)n[nH]1 [gandotinib]
Summary of the method: as §1

tozasertib = compound: Cc1cc(Nc2cc(N3CCN(C)CC3)nc(Sc3ccc(NC(=O)C4CC4)cc3)n2)n[nH]1 [tozasertib]
Summary of the method: as §1

[4] = compound: Cc1cc(SCc2sc(-c3ccc(C(F)(F)F)cc3)nc2C)ccc1OCC(=O)O
Summary of the method: as §1

doramapimod = compound: Cc1ccc(-n2nc(C(C)(C)C)cc2NC(=O)Nc2ccc(OCCN3CCOCC3)c3ccccc23)cc1 [doramapimod]
Summary of the method: as §1

ispinesib = compound: Cc1ccc(C(=O)N(CCCN)[C@@H](c2nc3cc(Cl)ccc3c(=O)n2Cc2ccccc2)C(C)C)cc1 [ispinesib]
Summary of the method: as §1

bafetinib = compound: Cc1ccc(NC(=O)c2ccc(CN3CC[C@H](N(C)C)C3)c(C(F)(F)F)c2)cc1Nc1nccc(-c2cncnc2)n1 [bafetinib]
Summary of the method: as §1

[5] = compound: Cc1cccc(CC(=O)N2CCc3c2ccc(-c2cn(C)c4ncnc(N)c24)c3F)n1
Summary of the method: as §1

nilotinib = compound: Cc1cn(-c2cc(NC(=O)c3ccc(C)c(Nc4nccc(-c5cccnc5)n4)c3)cc(C(F)(F)F)c2)cn1 [nilotinib]
Summary of the method: as §1

[6] = compound: Cc1nc(Nc2n[nH]c3c2CN(C(=O)N[C@H](CN(C)C)c2ccccc2)C3(C)C)c2sccc2n1
Summary of the method: as §1

dasatinib = compound: Cc1nc(Nc2ncc(C(=O)Nc3c(C)cccc3Cl)s2)cc(N2CCN(CCO)CC2)n1 [dasatinib]
Summary of the method: as §1

[7] = compound: Cc1ncc(-c2ccnc(Nc3ccc(S(C)(=O)=O)cc3)n2)n1C(C)C
Summary of the method: as §1

[8] = compound: Cn1cc(-c2ccc3c(c2)CCN3C(=O)Cc2cccc(C(F)(F)F)c2)c2c(N)ncnc21
Summary of the method: as §1

[9] = compound: Cn1cc(-c2ccc3nnc(C(F)(F)c4ccc5ncccc5c4)n3n2)cn1
Summary of the method: as §1

tipifarnib = compound: Cn1cncc1[C@@](N)(c1ccc(Cl)cc1)c1ccc2c(c1)c(-c1cccc(Cl)c1)cc(=O)n2C [tipifarnib]
Summary of the method: as §1

mubritinib = compound: FC(F)(F)c1ccc(/C=C/c2nc(COc3ccc(CCCCn4ccnn4)cc3)co2)cc1 [mubritinib]
Summary of the method: as §1

Measured: log2 fold change

MAN1B1 (UniProt Q9UKM7)
inactive: [1] 0.057 | crizotinib -0.131 | [2] 0.09 | [3] 0.086 | duvelisib 0.047 | gandotinib -0.01 | tozasertib -0.064 | [4] -0.019 | doramapimod -0.012 | ispinesib -0.079 | bafetinib -0.044 | [5] 0.016 | nilotinib -0.025 | [6] -0.027 | dasatinib 0.055 | [7] -0.039 | [8] -0.004 | [9] 0.02 | tipifarnib -0.014 | mubritinib -0.002

MANBA (UniProt O00462)
inactive: [1] 0.005 | crizotinib -0.05 | [2] 0.07 | [3] -0.019 | duvelisib 0.02 | gandotinib 0.101 | tozasertib 0 | [4] -0.002 | doramapimod 0.052 | ispinesib -0.057 | bafetinib -0.104 | [5] 0.015 | nilotinib 0.003 | [6] 0.026 | dasatinib 0.068 | [7] -0.017 | [8] 0.018 | [9] -0.041 | tipifarnib 0.054 | mubritinib 0.064

LZIC isoform 2 (UniProt Q8WZA0)
inactive: [1] 0.045 | crizotinib 0.011 | [2] 0.041 | [3] -0.034 | duvelisib 0.037 | gandotinib 0.018 | tozasertib -0.021 | [4] -0.04 | doramapimod -0.004 | ispinesib -0.046 | bafetinib -0.066 | [5] -0.069 | nilotinib -0.007 | [6] -0.008 | dasatinib 0.032 | [7] 0.015 | [8] 0.047 | [9] -0.01 | tipifarnib 0.028 | mubritinib 0.014

LZTFL1 (UniProt Q9NQ48)
inactive: [1] 0 | crizotinib -0.015 | [2] 0.032 | [3] -0.086 | duvelisib 0.034 | gandotinib -0.074 | tozasertib -0.027 | [4] -0.022 | doramapimod 0.021 | ispinesib 0.031 | bafetinib -0.037 | [5] 0.024 | nilotinib 0.001 | [6] 0.018 | dasatinib -0.026 | [7] -0.026 | [8] 0.041 | [9] 0 | tipifarnib -0.055 | mubritinib 0.033

LUC7L2 (UniProt Q9Y383)
inactive: [1] -0.083 | crizotinib 0.02 | [2] 0.053 | gandotinib 0.031 | [4] 0.03 | doramapimod -0.03 | ispinesib 0.111 | bafetinib 0.035 | [5] 0.002 | nilotinib 0.059 | dasatinib -0.01 | [7] -0.007 | [8] -0.033 | [9] -0.059 | tipifarnib 0.049 | mubritinib -0.07
active: [3] -0.439 | [6] -2.75

MAD2L2 (UniProt Q9UI95)
inactive: [1] -0.053 | crizotinib -0.032 | [2] 0.283 | [3] 0.08 | duvelisib 0.209 | gandotinib -0.153 | [4] -0.034 | doramapimod -0.062 | [5] 0.069 | dasatinib -0.104 | [8] 0.091

MAP3K7 (UniProt O43318)
inactive: [1] 0.093 | crizotinib -0.193 | [2] -0.035 | [3] 0.135 | gandotinib -0.036 | [4] 0.118 | doramapimod -0.001 | ispinesib -0.029 | bafetinib 0.029 | [5] 0.085 | nilotinib -0.105 | [6] -0.028 | dasatinib -0.038 | [7] 0.059 | [8] -0.095 | [9] -0.026 | tipifarnib -0.064 | mubritinib 0.046

MAP4 (UniProt E7EVA0)
inactive: [1] 0.023 | crizotinib -0.02 | [2] -0.222 | [3] 0.231 | gandotinib -0.001 | [4] -0.017 | doramapimod 0.136 | ispinesib -0.134 | bafetinib 0.311 | [5] -0.028 | nilotinib -0.014 | [6] 0.015 | dasatinib 0.168 | [7] -0.018 | [8] -0.166 | [9] -0.036 | tipifarnib 0.019 | mubritinib 0.055

LTBP4 (UniProt Q8N2S1)
inactive: [1] 0 | crizotinib 0.126 | [2] 0.107 | [3] 0.058 | duvelisib 0 | gandotinib -0.068 | tozasertib 0.052 | [4] -0.153 | doramapimod -0.04 | [5] 0.017 | nilotinib -0.045 | [6] 0.102 | dasatinib 0.148 | [7] 0.261 | [8] -0.072 | tipifarnib -0.005 | mubritinib 0.167

LSS (UniProt P48449)
inactive: [1] 0.043 | [2] 0.081 | [3] 0.02 | gandotinib 0.044 | [4] 0.017 | doramapimod 0.024 | ispinesib 0.111 | bafetinib 0.393 | [5] 0 | nilotinib -0.046 | [6] 0.047 | dasatinib 0 | [7] 0.013 | [8] 0.145 | [9] 0 | tipifarnib -0.039 | mubritinib 0.193
active: crizotinib 0.77

MAPK8 isoform 3 (UniProt P45983)
inactive: [1] 0.003 | crizotinib -0.08 | [2] 0.092 | [3] -0.096 | gandotinib 0.254 | [4] 0.096 | doramapimod -0.019 | ispinesib -0.008 | bafetinib -0.011 | [5] -0.048 | nilotinib 0.022 | dasatinib -0.318 | [8] 0.047 | [9] -0.058 | tipifarnib 0.001 | mubritinib -0.179
active: [6] 0.415 | [7] 0.495

LRWD1 (UniProt Q9UFC0)
inactive: [1] 0 | crizotinib -0.442 | [2] 0.064 | [3] -0.023 | duvelisib 0.143 | tozasertib 0.165 | [4] 0.076 | doramapimod 0 | ispinesib -0.05 | bafetinib 0.114 | nilotinib -0.21 | [6] -0.236 | dasatinib -0.195 | [7] 0.042 | [8] 0.109 | [9] 0.111 | tipifarnib -0.145 | mubritinib -0.013

MAGI1 (UniProt Q96QZ7)
active: [6] -0.477
inactive: [1] -0.006 | crizotinib -0.003 | [2] -0.053 | [3] 0.032 | gandotinib 0.003 | [4] 0.046 | doramapimod 0.024 | ispinesib -0.042 | bafetinib -0.055 | [5] -0.023 | nilotinib 0.015 | dasatinib 0.039 | [7] -0.044 | [8] 0.052 | [9] -0.079 | tipifarnib 0.079 | mubritinib -0.021

MAPK9 (UniProt P45984)
inactive: [1] 0.006 | crizotinib -0.042 | [2] 0.054 | [3] -0.068 | gandotinib -0.018 | [4] -0.041 | doramapimod 0.145 | ispinesib 0.01 | bafetinib -0.112 | [5] 0.003 | nilotinib -0.023 | [6] 0.047 | dasatinib -0.044 | [7] 0.134 | [8] 0.042 | [9] 0.04 | tipifarnib 0.015 | mubritinib -0.059

MAPKAPK5 (UniProt Q8IW41)
inactive: [1] 0.012 | crizotinib -0.046 | [2] 0.027 | [3] 0.069 | gandotinib 0.297 | [4] -0.013 | doramapimod 0.141 | ispinesib -0.017 | bafetinib 0.123 | [5] -0.014 | nilotinib 0.057 | [6] -0.035 | dasatinib -0.031 | [7] 0.052 | [8] -0.065 | [9] -0.074 | tipifarnib -0.083 | mubritinib 0.075

Two consecutive records out of the list so far, for reference:
MAP4 (UniProt E7EVA0)
inactive: [1] 0.023 | crizotinib -0.02 | [2] -0.222 | [3] 0.231 | gandotinib -0.001 | [4] -0.017 | doramapimod 0.136 | ispinesib -0.134 | bafetinib 0.311 | [5] -0.028 | nilotinib -0.014 | [6] 0.015 | dasatinib 0.168 | [7] -0.018 | [8] -0.166 | [9] -0.036 | tipifarnib 0.019 | mubritinib 0.055

LTBP4 (UniProt Q8N2S1)
inactive: [1] 0 | crizotinib 0.126 | [2] 0.107 | [3] 0.058 | duvelisib 0 | gandotinib -0.068 | tozasertib 0.052 | [4] -0.153 | doramapimod -0.04 | [5] 0.017 | nilotinib -0.045 | [6] 0.102 | dasatinib 0.148 | [7] 0.261 | [8] -0.072 | tipifarnib -0.005 | mubritinib 0.167

Later entries.

LRRC8E (UniProt Q6NSJ5)
inactive: [1] 0.063 | crizotinib -0.023 | [2] 0.017 | [3] 0.104 | duvelisib 0.219 | gandotinib -0.047 | tozasertib -0.075 | [4] -0.066 | doramapimod 0.012 | ispinesib -0.053 | bafetinib 0.098 | [5] -0.168 | dasatinib -0.026 | [8] 0.107 | [9] 0.049 | tipifarnib 0.046 | mubritinib -0.008
